# Laboratory results as given in US20120076899A1, “SHELF STABLE MONATIN SWEETENED BEVERAGE” (Cargill, Incorporated, priority 2009, published 2012).
# Assay: Organoleptic evaluation: flavor scoring of stored monatin samples
# Experimental: Synthetic R,R-monatin containing approximately 95.4% R,R-monatin monopotassium salt (dry basis) was obtained from CSIR (Modderfontein, South Africa). About 35 mg/L of this monatin was placed in a buffered solution at a pH of about 2.8-3.0 comprising 9 mM citric acid-trisodium citrate in high purity water and preserved with about 150 mg/L sodium benzoate. To some samples 200 ppm SANMELIN™ AO-3000 enzymatically modified isoquercitrin (EMIQ) (San-Ei Gen F.F.I.—Osaka, Japan) was added. Dissolved O2 levels were either increased by bubbling compressed air or reduced by bubbling N2 (99.9% purity) through these samples until the target O2 concentrations were achieved. Dissolved O2 levels were determined at 20° C. using a FOXY fluorescence quenching O2 analyzer from Ocean Optics (Dunedin, Fla.). Samples were stored in clear, glass ampules (˜10 mL) after O2 adjustment and heat-sealed to create an air-tight enclosure. The samples were then either stored in the dark, or exposed to light continuously (24 hours per day) in a light box (˜2200 lux light intensity) configured with a rotating carousel to provide even illumination. The source of light was provided by ultra-violet (UV) light wavelength transmitting bulbs and standard fluorescent bulbs. The heat produced by the lights warmed the samples to a temperature of about 28° C. Duplicate samples of each treatment were analyzed weekly for flavor and aroma by two food scientists trained to detect monatin sensory degradation. The intensity of each parameter was rated on a scale of 0 (bland) to 9 (extreme) and then the average response computed. The results are found in Tables 3A and 3B.
smiles,measurement,setting,value
"NC(CC(O)(Cc1c[nH]c2ccccc12)C(=O)O)C(=O)O (stereo not shown) [R,R-monatin, 2-hydroxy-2-(indol-3-ylmethyl)-4-aminoglutaric acid]","Flavor Scoring, scale 0 (bland) to 9 (extreme), average","8.3 mg/L O2, 0 ppm EMIQ, Dark, 0 d",0.0
same,"Flavor Scoring, scale 0 (bland) to 9 (extreme), average","8.3 mg/L O2, 0 ppm EMIQ, Dark, 7 d",0.0
same,"Flavor Scoring, scale 0 (bland) to 9 (extreme), average","8.3 mg/L O2, 0 ppm EMIQ, Dark, 14 d",0.0
same,"Flavor Scoring, scale 0 (bland) to 9 (extreme), average","8.3 mg/L O2, 0 ppm EMIQ, Dark, 21 d",0.0
same,"Flavor Scoring, scale 0 (bland) to 9 (extreme), average","8.3 mg/L O2, 0 ppm EMIQ, Dark, 28 d",0.0
same,"Flavor Scoring, scale 0 (bland) to 9 (extreme), average","8.3 mg/L O2, 0 ppm EMIQ, Light, 0 d",0.0
same,"Flavor Scoring, scale 0 (bland) to 9 (extreme), average","8.3 mg/L O2, 0 ppm EMIQ, Light, 7 d",3.0
same,"Flavor Scoring, scale 0 (bland) to 9 (extreme), average","8.3 mg/L O2, 0 ppm EMIQ, Light, 14 d",5.0
same,"Flavor Scoring, scale 0 (bland) to 9 (extreme), average","8.3 mg/L O2, 0 ppm EMIQ, Light, 21 d",6.0
same,"Flavor Scoring, scale 0 (bland) to 9 (extreme), average","8.3 mg/L O2, 0 ppm EMIQ, Light, 28 d",4.0
same,"Flavor Scoring, scale 0 (bland) to 9 (extreme), average","8.3 mg/L O2, 200 ppm EMIQ, Dark, 0 d",0.0
same,"Flavor Scoring, scale 0 (bland) to 9 (extreme), average","8.3 mg/L O2, 200 ppm EMIQ, Dark, 7 d",0.0
same,"Flavor Scoring, scale 0 (bland) to 9 (extreme), average","8.3 mg/L O2, 200 ppm EMIQ, Dark, 14 d",0.0
same,"Flavor Scoring, scale 0 (bland) to 9 (extreme), average","8.3 mg/L O2, 200 ppm EMIQ, Dark, 21 d",0.0
same,"Flavor Scoring, scale 0 (bland) to 9 (extreme), average","8.3 mg/L O2, 200 ppm EMIQ, Dark, 28 d",0.0
same,"Flavor Scoring, scale 0 (bland) to 9 (extreme), average","8.3 mg/L O2, 200 ppm EMIQ, Light, 0 d",0.0
same,"Flavor Scoring, scale 0 (bland) to 9 (extreme), average","8.3 mg/L O2, 200 ppm EMIQ, Light, 7 d",0.0
same,"Flavor Scoring, scale 0 (bland) to 9 (extreme), average","8.3 mg/L O2, 200 ppm EMIQ, Light, 14 d",0.5
same,"Flavor Scoring, scale 0 (bland) to 9 (extreme), average","8.3 mg/L O2, 200 ppm EMIQ, Light, 21 d",0.5
same,"Flavor Scoring, scale 0 (bland) to 9 (extreme), average","8.3 mg/L O2, 200 ppm EMIQ, Light, 28 d",0.5
same,"Flavor Scoring, scale 0 (bland) to 9 (extreme), average","<0.5 mg/L O2, 0 ppm EMIQ, Dark, 0 d",0.0
same,"Flavor Scoring, scale 0 (bland) to 9 (extreme), average","<0.5 mg/L O2, 0 ppm EMIQ, Dark, 7 d",0.0
same,"Flavor Scoring, scale 0 (bland) to 9 (extreme), average","<0.5 mg/L O2, 0 ppm EMIQ, Dark, 14 d",0.0
same,"Flavor Scoring, scale 0 (bland) to 9 (extreme), average","<0.5 mg/L O2, 0 ppm EMIQ, Dark, 21 d",0.0
same,"Flavor Scoring, scale 0 (bland) to 9 (extreme), average","<0.5 mg/L O2, 0 ppm EMIQ, Dark, 28 d",0.0
same,"Flavor Scoring, scale 0 (bland) to 9 (extreme), average","<0.5 mg/L O2, 0 ppm EMIQ, Light, 0 d",0.0
same,"Flavor Scoring, scale 0 (bland) to 9 (extreme), average","<0.5 mg/L O2, 0 ppm EMIQ, Light, 7 d",0.5
same,"Flavor Scoring, scale 0 (bland) to 9 (extreme), average","<0.5 mg/L O2, 0 ppm EMIQ, Light, 14 d",1.5
same,"Flavor Scoring, scale 0 (bland) to 9 (extreme), average","<0.5 mg/L O2, 0 ppm EMIQ, Light, 21 d",1.0
same,"Flavor Scoring, scale 0 (bland) to 9 (extreme), average","<0.5 mg/L O2, 0 ppm EMIQ, Light, 28 d",0.5
same,"Flavor Scoring, scale 0 (bland) to 9 (extreme), average","<0.5 mg/L O2, 200 ppm EMIQ, Dark, 0 d",0.0
same,"Flavor Scoring, scale 0 (bland) to 9 (extreme), average","<0.5 mg/L O2, 200 ppm EMIQ, Dark, 7 d",0.0
same,"Flavor Scoring, scale 0 (bland) to 9 (extreme), average","<0.5 mg/L O2, 200 ppm EMIQ, Dark, 14 d",0.0
same,"Flavor Scoring, scale 0 (bland) to 9 (extreme), average","<0.5 mg/L O2, 200 ppm EMIQ, Dark, 21 d",0.0
same,"Flavor Scoring, scale 0 (bland) to 9 (extreme), average","<0.5 mg/L O2, 200 ppm EMIQ, Dark, 28 d",0.0
same,"Flavor Scoring, scale 0 (bland) to 9 (extreme), average","<0.5 mg/L O2, 200 ppm EMIQ, Light, 0 d",0.0
same,"Flavor Scoring, scale 0 (bland) to 9 (extreme), average","<0.5 mg/L O2, 200 ppm EMIQ, Light, 7 d",0.0
same,"Flavor Scoring, scale 0 (bland) to 9 (extreme), average","<0.5 mg/L O2, 200 ppm EMIQ, Light, 14 d",0.0
same,"Flavor Scoring, scale 0 (bland) to 9 (extreme), average","<0.5 mg/L O2, 200 ppm EMIQ, Light, 21 d",0.5
same,"Flavor Scoring, scale 0 (bland) to 9 (extreme), average","<0.5 mg/L O2, 200 ppm EMIQ, Light, 28 d",0.0
